According to PubChem BioAssay AID540256 (National Center for Advancing Translational Sciences (NCATS), 2011):
Among all 300,000 compounds or so, about 3,700 (1.2%) were called active. Inconclusive means that the source gave no clear call. Such entries were picked first, then a sample of the others. The call rests on the fitted dose curve; tested in HEK293 cells. Potencies of inconclusive entries are doubtful fits and often do not repeat.

Assay: qHTS for Inhibitors of binding or entry into cells for Lassa Virus; further: nearly all actives have a fitted effect of over 50% in size
Conditions: Lassa virus pseudotype entry inhibition, cell reporter; activity change, negative = inhibition: at 37.9 µM (top of the series) unless noted
On the % scale 0 is the no-effect control and ±100 the full control effect; potency means the concentration at half of the fitted maximal effect.

**Q.** With `Clc1cccc2c3c([nH]c12)CCNC3` as the molecule, how does the “activity change, negative = inhibition” value read?
**A.** Its value is inactive: -0.899%.

**Q.** Which Potency does the source give for `O=C(O)c1ccc(NC(=O)c2cn(-c3ccccc3)nc2-c2ccc(Br)cc2)cc1` here?
**A.** The Potency was “inactive”.

**Q.** For `O=C(NCc1ccccn1)c1ccc(OC2CCN(Cc3ccc(CO)o3)CC2)cc1`, which “activity change, negative = inhibition” value is on record?
**A.** Its value is inactive: 17.6%.

**Q.** For `Cc1c(-c2nc(N)nc(Nc3ccccc3F)n2)oc2ccccc12`, which Potency is on record?
**A.** Its Potency is inconclusive: 0.291 µM [activator, full curve].

**Q.** Which Potency does the source give for `Cc1ccc(OCC(=O)Nc2cccc(C(=O)OCc3cc(=O)n4nc(C)sc4n3)c2)cc1` here?
**A.** The Potency was inconclusive: 35.5 µM [activator, single point].

**Q.** Which Potency does the source give for `COc1cccc(-c2ccc(SCC(=O)NC3CCCCC3)nn2)c1` here?
**A.** Its Potency is inconclusive: 14.1 µM [inhibitor, partial curve, poor fit].

**Q.** Which “activity change, negative = inhibition” value does the source give for `O=C(CC1N=C2c3ccccc3N=C(SCc3cccc(F)c3)N2C1=O)NCc1ccc2c(c1)OCO2` (centres undefined) here?
**A.** The value was inactive: 18.5% [at 46.1 µM].

**Q.** With `N/C(=N\OC(=O)COc1ccccc1Cl)c1ccccn1` as the molecule, how does the Potency read?
**A.** The Potency was active: 7.31 µM.

**Q.** For `CC(C)NC(=O)CSc1nnc(-c2ccc(S(=O)(=O)N3CCCC3)cc2)n1CC1CCCO1` (centres undefined), which “activity change, negative = inhibition” value is on record?
**A.** Its value is inactive: 7.04%.

**Q.** Which Potency does the source give for `Cc1nc(Nc2ccc(S(=O)(=O)N3CCCCC3C)cc2)c2nnn(Cc3ccccc3)c2n1` (centres undefined) here?
**A.** The Potency was inconclusive: 35.5 µM [inhibitor, single point].

**Q.** Which Potency does the source give for `CCN(CC)S(=O)(=O)c1ccc(N2CCc3cc(OC)c(OC)cc3C2)nc1` here?
**A.** Its Potency is inconclusive: 7.08 µM [inhibitor, partial curve].

**Q.** Which Potency does the source give for `COc1ccc(C2c3[nH]c4ccccc4c3C[C@H]3C(=O)N(CCCO)CC(=O)N23)cc1OC` (some centres undefined) here?
**A.** The Potency was inconclusive: 5.01 µM [activator, full curve, poor fit].

**Q.** With `Cc1ccc(NC(=O)CCNS(=O)(=O)c2cc(Br)cnc2N)cc1Cl` as the molecule, how does the Potency read?
**A.** Its Potency is inconclusive: 16.4 µM [inhibitor, single point].

**Q.** With `CC1CCN(c2ccc(C(F)(F)F)cc2N)CC1` as the molecule, how does the “activity change, negative = inhibition” value read?
**A.** The value was inactive: 0.431%.

**Q.** With `CC(C)=CCCC(C)=CCN1C(=O)[C@]2(OCCC=C[C@H]2C)c2ccccc21` as the molecule, how does the Potency read?
**A.** The Potency was inconclusive: 1.06 µM [inhibitor, single point].

**Q.** With `Cc1nn(C)c(C)c1/C=N/NC(=O)c1csc2ccccc12` as the molecule, how does the “activity change, negative = inhibition” value read?
**A.** The value was inactive: 23.8%.

**Q.** Which Potency does the source give for `COc1cc(-c2nc(-c3cccc(Cl)c3)c(-c3ccccc3)[nH]2)cc(OC)c1OC` here?
**A.** Its Potency is inconclusive: 31.6 µM [inhibitor, single point].

**Q.** Which Potency does the source give for `N#CCCn1cc(C(=O)Nc2ccccn2)c(-c2ccccc2)n1` here?
**A.** Its Potency is inconclusive: 1.41 µM [activator, partial curve, poor fit].

**Q.** Which Potency does the source give for `CC(C)Cn1c2c(c(=O)[nH]c1=O)C(C(F)(F)F)(C(F)(F)F)N=C(CCC1CCCCC1)N2` here?
**A.** The Potency was inconclusive: 28.2 µM [inhibitor, single point].
